Results are given in words; binding and its absence hold for the method and conditions named. Binding seen in cells or lysates may run through a third protein.
Biological target: cMyc-mut ELP1 (terminal aspartic acid mutated; ending in LSLLA) (UniProt O95163)
Assay: co-IP; HEK293T cells transfected with cMyc-ELP1 and FLAG-PP5; lysate (25 mM Tris-HCl pH 7.4, 150 mM NaCl, 1 mM EDTA, 1% NP-40, 5% glycerol) on anti-myc magnetic resin, RT 3 h; Western blots for FLAG, Hsp90 and Hsp70

Sequences of proteins named here, by UniProt entry; tags and fusion partners are left off. A change or cut given only in a name is not applied to a line headed by its entry.
UniProt O95163: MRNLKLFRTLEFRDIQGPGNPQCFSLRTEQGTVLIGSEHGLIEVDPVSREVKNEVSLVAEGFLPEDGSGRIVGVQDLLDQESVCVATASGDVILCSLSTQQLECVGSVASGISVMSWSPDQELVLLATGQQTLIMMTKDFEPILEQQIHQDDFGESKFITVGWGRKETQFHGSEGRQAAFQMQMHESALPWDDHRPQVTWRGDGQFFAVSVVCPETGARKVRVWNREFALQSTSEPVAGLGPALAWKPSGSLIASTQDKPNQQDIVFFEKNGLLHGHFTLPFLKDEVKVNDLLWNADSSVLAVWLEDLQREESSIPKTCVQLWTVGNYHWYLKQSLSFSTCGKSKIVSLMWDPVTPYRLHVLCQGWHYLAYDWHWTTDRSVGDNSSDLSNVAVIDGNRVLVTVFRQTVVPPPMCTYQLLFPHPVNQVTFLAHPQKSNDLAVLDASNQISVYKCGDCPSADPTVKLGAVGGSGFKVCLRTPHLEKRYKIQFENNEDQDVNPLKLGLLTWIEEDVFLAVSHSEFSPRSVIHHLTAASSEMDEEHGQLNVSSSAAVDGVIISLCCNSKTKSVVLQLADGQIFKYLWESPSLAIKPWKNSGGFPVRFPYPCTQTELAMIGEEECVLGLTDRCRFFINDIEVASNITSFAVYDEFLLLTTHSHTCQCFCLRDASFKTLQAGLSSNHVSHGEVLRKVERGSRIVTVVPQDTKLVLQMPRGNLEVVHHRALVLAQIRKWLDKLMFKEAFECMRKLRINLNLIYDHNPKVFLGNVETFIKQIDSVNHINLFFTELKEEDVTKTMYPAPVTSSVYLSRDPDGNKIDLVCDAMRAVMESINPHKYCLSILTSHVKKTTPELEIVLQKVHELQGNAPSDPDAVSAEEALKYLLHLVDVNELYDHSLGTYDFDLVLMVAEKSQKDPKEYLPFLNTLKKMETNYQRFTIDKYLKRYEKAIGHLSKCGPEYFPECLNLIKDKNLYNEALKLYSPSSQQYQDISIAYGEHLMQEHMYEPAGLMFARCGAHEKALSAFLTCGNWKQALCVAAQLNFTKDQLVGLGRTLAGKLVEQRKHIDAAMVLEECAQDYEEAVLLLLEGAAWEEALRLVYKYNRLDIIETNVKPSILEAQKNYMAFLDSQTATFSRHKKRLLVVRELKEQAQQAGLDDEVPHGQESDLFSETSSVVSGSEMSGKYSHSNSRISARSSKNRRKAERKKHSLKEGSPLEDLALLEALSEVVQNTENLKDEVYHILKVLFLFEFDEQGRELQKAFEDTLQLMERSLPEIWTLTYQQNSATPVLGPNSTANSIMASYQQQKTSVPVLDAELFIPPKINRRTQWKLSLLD
UniProt P53041: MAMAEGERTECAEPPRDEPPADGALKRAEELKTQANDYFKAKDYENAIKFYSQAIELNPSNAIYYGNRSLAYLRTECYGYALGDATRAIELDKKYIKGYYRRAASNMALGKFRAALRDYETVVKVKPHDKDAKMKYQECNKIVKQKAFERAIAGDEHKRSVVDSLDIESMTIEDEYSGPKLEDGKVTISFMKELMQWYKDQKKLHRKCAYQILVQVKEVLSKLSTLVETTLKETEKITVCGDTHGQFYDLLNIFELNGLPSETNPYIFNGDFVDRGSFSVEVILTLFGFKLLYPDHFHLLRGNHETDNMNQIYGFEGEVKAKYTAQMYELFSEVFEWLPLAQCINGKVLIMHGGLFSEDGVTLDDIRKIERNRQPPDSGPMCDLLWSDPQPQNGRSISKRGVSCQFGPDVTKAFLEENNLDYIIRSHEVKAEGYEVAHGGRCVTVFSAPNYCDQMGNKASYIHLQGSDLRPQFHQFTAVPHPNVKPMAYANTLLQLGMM

binding: no binding
Substance: FLAG-PP5 (from UniProt P53041 1-499) (enzyme)

— paper PMC11259706 (The Journal of Biological Chemistry, 2024)
